Results taken from the supplement of paper PMC10849652.
The other results are listed elsewhere or left out.

Chains of the proteins cited; added tags and fusions are not shown. Lines headed by an entry give the natural chain unless they say otherwise; changes in a name come on top.
UniProt O43766: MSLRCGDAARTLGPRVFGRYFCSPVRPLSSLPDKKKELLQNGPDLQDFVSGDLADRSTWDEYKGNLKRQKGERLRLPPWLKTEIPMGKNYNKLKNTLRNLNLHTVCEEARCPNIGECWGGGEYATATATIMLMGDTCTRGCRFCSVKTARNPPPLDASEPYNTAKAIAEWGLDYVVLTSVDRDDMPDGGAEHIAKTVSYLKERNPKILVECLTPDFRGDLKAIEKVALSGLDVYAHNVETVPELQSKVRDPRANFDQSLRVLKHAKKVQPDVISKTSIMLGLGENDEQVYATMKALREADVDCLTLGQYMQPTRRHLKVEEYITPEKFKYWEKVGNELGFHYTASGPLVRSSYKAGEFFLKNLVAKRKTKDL
UniProt Q9NS86: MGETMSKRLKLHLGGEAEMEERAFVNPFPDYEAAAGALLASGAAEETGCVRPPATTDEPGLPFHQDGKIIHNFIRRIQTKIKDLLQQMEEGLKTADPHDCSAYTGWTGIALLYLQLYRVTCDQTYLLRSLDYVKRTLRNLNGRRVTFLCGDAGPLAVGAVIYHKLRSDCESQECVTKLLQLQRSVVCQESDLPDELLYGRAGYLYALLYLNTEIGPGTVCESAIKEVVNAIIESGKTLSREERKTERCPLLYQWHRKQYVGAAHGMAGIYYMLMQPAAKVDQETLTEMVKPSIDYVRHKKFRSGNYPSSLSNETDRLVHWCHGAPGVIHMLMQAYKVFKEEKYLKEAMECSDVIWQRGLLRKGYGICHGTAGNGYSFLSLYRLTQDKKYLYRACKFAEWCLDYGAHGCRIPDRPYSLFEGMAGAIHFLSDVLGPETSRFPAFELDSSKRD
UniProt P13796: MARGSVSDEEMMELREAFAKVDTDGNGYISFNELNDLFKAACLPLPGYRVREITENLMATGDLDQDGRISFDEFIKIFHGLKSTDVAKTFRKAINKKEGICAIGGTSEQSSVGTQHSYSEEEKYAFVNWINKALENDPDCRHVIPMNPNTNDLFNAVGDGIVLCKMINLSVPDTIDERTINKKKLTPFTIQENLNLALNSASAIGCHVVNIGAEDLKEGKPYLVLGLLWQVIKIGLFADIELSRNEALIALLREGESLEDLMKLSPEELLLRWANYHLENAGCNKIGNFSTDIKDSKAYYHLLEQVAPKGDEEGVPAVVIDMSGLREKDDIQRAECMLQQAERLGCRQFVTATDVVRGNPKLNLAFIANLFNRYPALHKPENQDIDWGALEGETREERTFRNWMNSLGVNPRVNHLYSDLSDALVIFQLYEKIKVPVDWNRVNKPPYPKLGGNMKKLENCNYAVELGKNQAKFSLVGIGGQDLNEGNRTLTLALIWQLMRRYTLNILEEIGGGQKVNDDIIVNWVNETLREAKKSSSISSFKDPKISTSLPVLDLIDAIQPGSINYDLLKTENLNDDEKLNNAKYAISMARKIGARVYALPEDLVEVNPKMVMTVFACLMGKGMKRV
UniProt Q9UIC8: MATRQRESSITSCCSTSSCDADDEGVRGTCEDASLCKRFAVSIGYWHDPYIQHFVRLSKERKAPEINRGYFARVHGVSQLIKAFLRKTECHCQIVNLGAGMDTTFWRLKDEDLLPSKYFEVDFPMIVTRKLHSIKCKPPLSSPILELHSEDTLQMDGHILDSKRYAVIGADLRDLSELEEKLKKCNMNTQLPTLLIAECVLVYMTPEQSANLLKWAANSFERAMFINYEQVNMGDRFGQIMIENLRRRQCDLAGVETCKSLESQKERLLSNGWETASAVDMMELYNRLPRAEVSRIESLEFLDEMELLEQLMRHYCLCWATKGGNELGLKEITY
UniProt Q96PV6, whole entry, looked up: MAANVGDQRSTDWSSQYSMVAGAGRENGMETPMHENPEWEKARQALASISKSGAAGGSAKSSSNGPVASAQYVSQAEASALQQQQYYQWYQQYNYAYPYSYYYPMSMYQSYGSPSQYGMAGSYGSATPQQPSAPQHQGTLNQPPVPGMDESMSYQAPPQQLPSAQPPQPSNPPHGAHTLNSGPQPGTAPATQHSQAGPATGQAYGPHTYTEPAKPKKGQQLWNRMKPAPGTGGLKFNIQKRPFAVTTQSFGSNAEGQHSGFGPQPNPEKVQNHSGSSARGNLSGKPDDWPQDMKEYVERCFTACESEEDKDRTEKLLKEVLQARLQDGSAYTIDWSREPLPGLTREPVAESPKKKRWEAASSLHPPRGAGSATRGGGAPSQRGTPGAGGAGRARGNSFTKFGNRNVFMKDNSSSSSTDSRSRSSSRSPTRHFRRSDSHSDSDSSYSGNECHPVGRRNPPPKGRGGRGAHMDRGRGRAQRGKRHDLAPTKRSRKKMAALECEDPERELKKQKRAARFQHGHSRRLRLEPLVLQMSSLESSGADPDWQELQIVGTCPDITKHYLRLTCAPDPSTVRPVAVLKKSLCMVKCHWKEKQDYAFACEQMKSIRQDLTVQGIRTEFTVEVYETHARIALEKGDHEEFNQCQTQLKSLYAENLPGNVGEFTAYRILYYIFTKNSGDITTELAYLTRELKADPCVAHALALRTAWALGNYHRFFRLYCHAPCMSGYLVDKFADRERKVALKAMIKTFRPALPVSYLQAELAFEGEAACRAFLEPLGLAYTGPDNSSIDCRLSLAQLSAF
UniProt Q5TKA1: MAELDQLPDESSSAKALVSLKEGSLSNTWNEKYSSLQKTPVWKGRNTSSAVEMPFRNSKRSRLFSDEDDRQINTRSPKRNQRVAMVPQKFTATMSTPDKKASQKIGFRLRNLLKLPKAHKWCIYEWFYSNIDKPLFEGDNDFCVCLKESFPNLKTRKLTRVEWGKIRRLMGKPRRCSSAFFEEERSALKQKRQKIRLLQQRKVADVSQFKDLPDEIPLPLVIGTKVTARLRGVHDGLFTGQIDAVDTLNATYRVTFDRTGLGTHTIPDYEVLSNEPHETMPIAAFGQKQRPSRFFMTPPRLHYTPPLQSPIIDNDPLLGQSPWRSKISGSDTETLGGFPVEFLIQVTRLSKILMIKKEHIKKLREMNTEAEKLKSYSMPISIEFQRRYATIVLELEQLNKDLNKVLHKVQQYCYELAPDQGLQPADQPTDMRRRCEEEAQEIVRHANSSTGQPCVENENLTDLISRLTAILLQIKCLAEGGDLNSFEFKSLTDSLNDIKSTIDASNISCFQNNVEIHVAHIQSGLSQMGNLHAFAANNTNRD
UniProt Q9NT99: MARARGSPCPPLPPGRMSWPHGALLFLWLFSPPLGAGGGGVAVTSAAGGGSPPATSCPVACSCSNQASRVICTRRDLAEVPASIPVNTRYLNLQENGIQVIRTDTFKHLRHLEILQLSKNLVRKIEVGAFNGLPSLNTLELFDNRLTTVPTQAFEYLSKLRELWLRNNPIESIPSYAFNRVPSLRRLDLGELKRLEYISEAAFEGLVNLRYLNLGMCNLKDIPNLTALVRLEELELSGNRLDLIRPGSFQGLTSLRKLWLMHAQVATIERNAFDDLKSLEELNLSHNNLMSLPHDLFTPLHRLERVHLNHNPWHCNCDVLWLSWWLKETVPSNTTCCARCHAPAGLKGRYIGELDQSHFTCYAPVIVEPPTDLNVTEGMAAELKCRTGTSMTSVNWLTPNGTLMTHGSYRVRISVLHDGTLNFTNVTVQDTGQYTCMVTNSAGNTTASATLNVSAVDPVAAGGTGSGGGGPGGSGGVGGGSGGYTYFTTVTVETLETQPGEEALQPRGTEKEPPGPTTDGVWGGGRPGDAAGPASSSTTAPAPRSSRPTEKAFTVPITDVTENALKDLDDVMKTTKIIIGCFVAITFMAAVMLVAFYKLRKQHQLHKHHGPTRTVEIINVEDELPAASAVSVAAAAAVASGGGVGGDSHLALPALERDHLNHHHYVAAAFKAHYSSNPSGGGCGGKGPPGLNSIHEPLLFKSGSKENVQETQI
UniProt Q71RC2, whole entry, looked up: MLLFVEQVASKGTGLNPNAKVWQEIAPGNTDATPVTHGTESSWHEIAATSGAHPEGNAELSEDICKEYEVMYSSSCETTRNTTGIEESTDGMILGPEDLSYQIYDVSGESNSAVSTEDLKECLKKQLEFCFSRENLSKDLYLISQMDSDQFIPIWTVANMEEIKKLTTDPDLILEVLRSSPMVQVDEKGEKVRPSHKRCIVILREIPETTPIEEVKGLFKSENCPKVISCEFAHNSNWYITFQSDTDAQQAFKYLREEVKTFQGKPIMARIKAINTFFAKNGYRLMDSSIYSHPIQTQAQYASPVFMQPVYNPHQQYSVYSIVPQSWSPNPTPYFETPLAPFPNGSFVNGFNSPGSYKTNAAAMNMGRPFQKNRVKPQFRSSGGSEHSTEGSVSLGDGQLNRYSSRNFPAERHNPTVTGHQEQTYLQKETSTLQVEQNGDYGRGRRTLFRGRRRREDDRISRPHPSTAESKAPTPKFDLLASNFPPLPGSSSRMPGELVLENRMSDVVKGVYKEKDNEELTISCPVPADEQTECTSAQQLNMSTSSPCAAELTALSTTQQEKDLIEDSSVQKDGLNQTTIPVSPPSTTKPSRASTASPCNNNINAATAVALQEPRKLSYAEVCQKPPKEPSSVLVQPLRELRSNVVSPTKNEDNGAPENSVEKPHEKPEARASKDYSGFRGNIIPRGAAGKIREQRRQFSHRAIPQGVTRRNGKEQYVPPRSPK

Assays:
Assay in all cases: log2 fold change, soluble protein after heating vs DMSO (PISA); higher = thermal stabilisation; K562 cells, 10 uM, 30 min; active = over 0.2 and 3.5 SD of the protein, either way, in both replicates (recomputed)
[1] = compound: C1=CC=C(C=C1)[C@H](COC2=CC3=C(C=C2)NC(=O)N3)NC(=O)C4=CC=CN(C4=O)CC5=CC(=C(C=C5)F)F
How it was run: (§1)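 K562 cells at 2×10^6 cells/mL were treated for 30 min with 10 μM compound, and aliquots were heated for 3 min over 48°C-58°C before pooling. Extraction used PBS with 0.5% NP-40 at 4°C, and soluble protein was the supernatant after 21,000xg for 90 min, measured by TMTpro 16plex LC-MS/MS with channel sums equalised. Thermal stability values, relative to control samples and from duplicates, are log2 fold changes.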

[2] = compound: CC1=C(SC2=C1C(=N[C@H](C3=NN=C(N32)C)CC(=O)N)C4=CC=C(C=C4)Cl)C
How it was run: as §1

[3] = compound: CC1=C2C(=CC=C1)N=C(N(C2=O)C3=CC=CC=C3C)CN4C=NC5=C(N=CN=C54)N
How it was run: as §1

[4] = compound: Cc1sc2c(c1C)C(c1ccc(Cl)cc1)=N[C@@H](CC(=O)OC(C)(C)C)c1nnc(C)n1-2
How it was run: as §1

[5] = compound: c1ccc([C@@H]2C[C@H]2NC2CCNCC2)cc1
How it was run: as §1

Measured: log2 fold change

LRPPRC (UniProt P42704)
inactive: [1] -0.312 | [2] -0.059 | [3] 0.257 | [4] -0.031 | [5] -0.05

LIAS (UniProt O43766)
inactive: [1] 0.001 | [2] -0.042 | [3] 0.008 | [4] 0.049 | [5] 0.05

LANCL2 (UniProt Q9NS86)
inactive: [1] 0.01 | [2] 0 | [3] -0.007 | [4] -0.021 | [5] 0.043

LCP1 (UniProt P13796)
inactive: [1] -0.008 | [2] -0.006 | [3] 0.007 | [4] 0.01 | [5] 0.039

LCMT1 (UniProt Q9UIC8)
inactive: [1] -0.061 | [2] 0.064 | [3] 0.005 | [4] -0.032 | [5] -0.049

LENG8 (UniProt Q96PV6)
inactive: [1] 0.036 | [2] 0.177 | [3] -0.356 | [4] -0.028 | [5] 0.022

LIN9 isoform 2 (UniProt Q5TKA1)
inactive: [1] 0.02 | [2] 0.053 | [3] 0.073 | [4] -0.007 | [5] 0.06

Quoted from the entries so far (2 entries):
LENG8 (UniProt Q96PV6)
inactive: [1] 0.036 | [2] 0.177 | [3] -0.356 | [4] -0.028 | [5] 0.022

LIN9 isoform 2 (UniProt Q5TKA1)
inactive: [1] 0.02 | [2] 0.053 | [3] 0.073 | [4] -0.007 | [5] 0.06

Next part

LRRC4B (UniProt Q9NT99)
inactive: [1] 0.062 | [2] 0.136 | [3] -0.06 | [4] 0.037 | [5] 0.021

LARP4 isoform 4 (UniProt Q71RC2)
inactive: [1] 0.069 | [2] -0.071 | [3] 0 | [4] 0.093 | [5] 0.036
